Some of the results follow.

By UniProt entry, the sequences of proteins in these tests, tags left out. Where a name states a change or a piece, a line headed by the entry shows the natural chain unless it says otherwise.
UniProt Q9NPI6: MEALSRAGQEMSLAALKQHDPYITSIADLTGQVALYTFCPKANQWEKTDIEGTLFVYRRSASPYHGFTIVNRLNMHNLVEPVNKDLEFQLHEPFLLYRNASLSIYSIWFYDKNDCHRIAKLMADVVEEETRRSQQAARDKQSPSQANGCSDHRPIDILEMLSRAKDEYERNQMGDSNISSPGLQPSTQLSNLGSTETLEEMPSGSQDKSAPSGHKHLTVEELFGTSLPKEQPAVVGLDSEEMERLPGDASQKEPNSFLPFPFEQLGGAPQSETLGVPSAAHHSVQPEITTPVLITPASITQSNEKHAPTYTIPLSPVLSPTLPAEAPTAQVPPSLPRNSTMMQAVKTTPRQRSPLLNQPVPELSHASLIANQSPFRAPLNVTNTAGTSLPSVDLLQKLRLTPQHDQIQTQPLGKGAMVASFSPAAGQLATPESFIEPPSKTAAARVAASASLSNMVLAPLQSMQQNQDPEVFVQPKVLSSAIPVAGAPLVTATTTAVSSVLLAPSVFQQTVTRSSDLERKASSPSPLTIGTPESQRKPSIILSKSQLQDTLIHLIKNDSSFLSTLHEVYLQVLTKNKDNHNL
UniProt P50461: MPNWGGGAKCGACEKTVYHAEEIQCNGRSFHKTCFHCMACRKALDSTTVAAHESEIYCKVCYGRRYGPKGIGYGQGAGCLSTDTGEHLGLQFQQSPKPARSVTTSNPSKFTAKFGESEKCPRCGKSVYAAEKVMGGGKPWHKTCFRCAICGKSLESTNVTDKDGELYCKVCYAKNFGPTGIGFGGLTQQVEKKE
UniProt Q9Y6A2: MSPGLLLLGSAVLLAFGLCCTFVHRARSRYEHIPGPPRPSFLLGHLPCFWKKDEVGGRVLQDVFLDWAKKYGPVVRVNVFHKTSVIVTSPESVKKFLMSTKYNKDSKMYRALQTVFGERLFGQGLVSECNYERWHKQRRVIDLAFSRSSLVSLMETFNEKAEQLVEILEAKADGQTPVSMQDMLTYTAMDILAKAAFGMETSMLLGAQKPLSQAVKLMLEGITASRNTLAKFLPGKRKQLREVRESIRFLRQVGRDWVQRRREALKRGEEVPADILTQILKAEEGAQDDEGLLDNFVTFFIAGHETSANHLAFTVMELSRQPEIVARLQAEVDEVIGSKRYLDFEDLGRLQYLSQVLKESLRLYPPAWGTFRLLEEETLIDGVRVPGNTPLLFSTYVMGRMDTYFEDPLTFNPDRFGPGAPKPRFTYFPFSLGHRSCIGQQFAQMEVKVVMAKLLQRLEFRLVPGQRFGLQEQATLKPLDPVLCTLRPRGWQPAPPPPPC
UniProt O95476: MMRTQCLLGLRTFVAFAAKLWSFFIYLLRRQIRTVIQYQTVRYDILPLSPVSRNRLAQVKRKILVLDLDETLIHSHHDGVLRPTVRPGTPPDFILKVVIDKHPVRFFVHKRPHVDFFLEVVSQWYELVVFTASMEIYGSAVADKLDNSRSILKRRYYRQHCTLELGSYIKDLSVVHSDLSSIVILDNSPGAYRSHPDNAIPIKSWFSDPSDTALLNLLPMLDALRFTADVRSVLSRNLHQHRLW
UniProt Q9NTM9: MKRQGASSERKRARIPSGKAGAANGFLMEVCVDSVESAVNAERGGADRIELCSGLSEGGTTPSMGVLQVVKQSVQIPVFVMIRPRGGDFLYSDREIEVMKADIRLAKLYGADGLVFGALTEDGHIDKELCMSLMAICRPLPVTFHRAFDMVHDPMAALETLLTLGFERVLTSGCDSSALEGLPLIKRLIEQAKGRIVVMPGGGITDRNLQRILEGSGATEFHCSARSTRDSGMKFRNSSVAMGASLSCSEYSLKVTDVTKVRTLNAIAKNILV
UniProt Q9Y4B6: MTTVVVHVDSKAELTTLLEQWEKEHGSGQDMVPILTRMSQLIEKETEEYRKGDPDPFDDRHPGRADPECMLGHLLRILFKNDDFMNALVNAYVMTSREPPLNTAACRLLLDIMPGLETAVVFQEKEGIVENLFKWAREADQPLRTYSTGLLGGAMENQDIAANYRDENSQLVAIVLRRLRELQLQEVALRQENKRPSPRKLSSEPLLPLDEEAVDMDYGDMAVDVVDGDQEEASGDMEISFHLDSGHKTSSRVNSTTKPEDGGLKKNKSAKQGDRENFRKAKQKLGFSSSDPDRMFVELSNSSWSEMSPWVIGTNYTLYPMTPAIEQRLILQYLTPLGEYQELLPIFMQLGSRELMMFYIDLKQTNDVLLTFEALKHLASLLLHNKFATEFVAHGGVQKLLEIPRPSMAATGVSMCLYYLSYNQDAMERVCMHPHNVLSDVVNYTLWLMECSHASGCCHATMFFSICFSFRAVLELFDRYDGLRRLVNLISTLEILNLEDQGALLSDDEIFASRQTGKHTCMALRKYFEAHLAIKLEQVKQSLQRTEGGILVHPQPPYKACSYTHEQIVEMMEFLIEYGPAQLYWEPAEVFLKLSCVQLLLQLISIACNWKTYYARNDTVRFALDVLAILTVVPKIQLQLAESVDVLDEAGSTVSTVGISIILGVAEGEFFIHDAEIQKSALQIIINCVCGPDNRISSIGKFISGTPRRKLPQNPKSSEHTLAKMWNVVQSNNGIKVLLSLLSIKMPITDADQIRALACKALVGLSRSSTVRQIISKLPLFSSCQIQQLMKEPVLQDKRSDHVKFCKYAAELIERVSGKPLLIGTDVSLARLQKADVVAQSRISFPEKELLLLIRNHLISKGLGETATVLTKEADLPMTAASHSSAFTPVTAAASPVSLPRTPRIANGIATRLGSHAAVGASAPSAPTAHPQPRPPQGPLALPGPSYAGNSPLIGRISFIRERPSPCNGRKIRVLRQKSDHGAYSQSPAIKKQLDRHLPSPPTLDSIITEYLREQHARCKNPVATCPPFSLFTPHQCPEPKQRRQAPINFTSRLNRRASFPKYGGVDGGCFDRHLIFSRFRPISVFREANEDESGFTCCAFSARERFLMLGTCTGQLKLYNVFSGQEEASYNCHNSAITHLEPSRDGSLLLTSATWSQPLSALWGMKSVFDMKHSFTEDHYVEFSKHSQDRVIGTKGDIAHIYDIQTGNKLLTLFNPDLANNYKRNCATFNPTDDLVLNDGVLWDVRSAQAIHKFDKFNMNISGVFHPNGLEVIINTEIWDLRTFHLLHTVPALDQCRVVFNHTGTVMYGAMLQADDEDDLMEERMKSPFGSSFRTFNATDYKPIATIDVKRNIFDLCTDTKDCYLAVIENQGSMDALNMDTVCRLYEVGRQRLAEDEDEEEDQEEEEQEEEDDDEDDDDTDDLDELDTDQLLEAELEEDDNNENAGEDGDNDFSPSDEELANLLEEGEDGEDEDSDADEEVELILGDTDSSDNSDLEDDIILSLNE
UniProt Q16527: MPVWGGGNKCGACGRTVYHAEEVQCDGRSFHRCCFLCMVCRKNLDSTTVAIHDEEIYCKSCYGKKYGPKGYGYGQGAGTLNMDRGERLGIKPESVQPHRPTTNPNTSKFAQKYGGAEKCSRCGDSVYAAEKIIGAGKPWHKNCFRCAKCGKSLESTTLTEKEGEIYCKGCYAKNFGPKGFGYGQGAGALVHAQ
UniProt Q13619, whole entry, looked up: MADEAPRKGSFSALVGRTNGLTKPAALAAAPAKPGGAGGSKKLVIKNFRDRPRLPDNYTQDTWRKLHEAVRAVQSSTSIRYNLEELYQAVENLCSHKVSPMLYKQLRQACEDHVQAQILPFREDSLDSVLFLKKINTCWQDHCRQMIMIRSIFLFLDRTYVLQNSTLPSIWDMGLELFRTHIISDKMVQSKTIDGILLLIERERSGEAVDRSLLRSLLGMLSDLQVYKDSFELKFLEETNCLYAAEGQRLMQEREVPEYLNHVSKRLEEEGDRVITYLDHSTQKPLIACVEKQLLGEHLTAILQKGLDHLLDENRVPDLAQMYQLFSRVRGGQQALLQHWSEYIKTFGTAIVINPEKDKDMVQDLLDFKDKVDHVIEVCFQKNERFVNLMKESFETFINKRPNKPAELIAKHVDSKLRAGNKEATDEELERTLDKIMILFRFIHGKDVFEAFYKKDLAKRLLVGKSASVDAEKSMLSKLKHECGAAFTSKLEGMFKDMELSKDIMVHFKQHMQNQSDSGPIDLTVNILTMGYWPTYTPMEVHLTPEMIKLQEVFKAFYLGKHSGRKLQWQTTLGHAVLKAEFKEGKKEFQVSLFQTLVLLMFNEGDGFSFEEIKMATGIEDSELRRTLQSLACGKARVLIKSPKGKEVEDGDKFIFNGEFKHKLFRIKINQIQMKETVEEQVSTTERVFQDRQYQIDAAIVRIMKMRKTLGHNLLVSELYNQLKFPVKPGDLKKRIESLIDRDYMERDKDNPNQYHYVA
UniProt Q14247: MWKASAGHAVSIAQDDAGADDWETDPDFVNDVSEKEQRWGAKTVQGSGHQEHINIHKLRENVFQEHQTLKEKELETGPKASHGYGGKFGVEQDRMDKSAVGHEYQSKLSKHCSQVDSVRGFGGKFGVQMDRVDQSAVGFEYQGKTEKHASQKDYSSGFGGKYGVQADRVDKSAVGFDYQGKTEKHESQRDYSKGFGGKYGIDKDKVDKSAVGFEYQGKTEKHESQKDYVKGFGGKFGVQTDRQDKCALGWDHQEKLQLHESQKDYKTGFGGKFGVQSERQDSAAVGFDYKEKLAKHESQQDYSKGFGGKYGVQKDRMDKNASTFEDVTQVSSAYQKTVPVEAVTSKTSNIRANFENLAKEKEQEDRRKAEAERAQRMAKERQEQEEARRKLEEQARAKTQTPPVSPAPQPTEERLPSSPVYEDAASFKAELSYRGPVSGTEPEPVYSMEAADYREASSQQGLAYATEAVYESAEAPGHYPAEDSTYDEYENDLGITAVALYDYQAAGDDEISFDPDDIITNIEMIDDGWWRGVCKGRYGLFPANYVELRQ
UniProt P61803: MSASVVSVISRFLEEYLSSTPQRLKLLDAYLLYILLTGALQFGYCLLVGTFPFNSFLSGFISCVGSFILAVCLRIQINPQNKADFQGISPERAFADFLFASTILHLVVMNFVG
UniProt Q9H1C7: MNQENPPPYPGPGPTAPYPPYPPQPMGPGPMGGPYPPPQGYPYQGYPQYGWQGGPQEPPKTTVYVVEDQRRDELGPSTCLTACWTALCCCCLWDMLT
UniProt P35221: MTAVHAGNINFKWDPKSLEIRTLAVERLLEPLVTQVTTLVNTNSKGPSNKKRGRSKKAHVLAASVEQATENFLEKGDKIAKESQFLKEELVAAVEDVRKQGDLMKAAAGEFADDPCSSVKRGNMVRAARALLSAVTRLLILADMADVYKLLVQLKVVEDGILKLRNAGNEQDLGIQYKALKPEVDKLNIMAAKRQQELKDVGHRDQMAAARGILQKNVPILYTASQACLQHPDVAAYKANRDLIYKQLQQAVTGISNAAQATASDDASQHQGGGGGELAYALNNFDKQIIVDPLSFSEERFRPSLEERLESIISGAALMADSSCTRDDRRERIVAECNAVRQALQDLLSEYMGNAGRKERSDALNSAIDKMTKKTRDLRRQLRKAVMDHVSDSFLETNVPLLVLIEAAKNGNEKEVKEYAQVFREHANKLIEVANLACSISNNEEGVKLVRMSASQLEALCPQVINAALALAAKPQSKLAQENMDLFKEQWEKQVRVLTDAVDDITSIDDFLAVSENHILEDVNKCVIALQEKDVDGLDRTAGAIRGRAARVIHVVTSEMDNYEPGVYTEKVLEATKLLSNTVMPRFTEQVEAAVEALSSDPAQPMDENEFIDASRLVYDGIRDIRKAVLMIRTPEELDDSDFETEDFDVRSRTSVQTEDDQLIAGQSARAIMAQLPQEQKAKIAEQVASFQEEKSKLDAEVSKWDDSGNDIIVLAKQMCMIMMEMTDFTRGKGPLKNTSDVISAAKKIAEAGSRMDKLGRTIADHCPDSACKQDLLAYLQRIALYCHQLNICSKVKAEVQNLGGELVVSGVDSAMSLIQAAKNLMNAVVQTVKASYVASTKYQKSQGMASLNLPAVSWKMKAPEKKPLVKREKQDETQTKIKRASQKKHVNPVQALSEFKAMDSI
UniProt Q8NCG7: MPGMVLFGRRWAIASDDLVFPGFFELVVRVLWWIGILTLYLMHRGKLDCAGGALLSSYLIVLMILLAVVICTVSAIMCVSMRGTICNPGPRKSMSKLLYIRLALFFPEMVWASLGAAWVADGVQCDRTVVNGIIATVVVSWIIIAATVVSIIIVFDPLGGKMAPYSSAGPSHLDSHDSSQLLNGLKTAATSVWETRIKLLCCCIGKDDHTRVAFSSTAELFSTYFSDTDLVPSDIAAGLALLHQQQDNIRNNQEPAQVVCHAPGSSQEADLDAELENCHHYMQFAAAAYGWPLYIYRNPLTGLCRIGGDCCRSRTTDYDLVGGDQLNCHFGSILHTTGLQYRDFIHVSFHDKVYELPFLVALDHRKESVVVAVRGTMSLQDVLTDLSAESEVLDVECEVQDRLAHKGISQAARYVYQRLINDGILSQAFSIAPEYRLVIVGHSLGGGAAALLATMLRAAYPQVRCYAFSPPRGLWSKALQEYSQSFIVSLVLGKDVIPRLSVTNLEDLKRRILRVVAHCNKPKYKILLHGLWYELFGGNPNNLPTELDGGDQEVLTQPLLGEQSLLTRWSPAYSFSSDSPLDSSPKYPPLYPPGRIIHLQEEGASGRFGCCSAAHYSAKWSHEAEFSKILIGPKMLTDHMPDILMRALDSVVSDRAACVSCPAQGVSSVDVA

Compound in this assay: Nc1ccccc1NC(=O)c1ccc(CNC(=O)OCc2cccnc2)cc1 [entinostat]
As to the kind of experiment: log2 fold change, soluble protein after heating vs DMSO (PISA); higher = thermal stabilisation; K562 cells, 10 uM, 30 min; active = over 0.2 and 3.5 SD of the protein, either way, in both replicates (recomputed). In outline:
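Soluble protein was quantified by TMTpro 16plex LC-MS/MS after channel sums were equalised. It was obtained as the supernatant after 21,000xg for 90 min from pooled aliquots of K562 cells (2×10^6 cells/mL, 10 μM compound, 30 min) heated for 3 min across 48°C-58°C and extracted in PBS with 0.5% NP-40 at 4°C. Thermal stability values are relative to control samples and come from duplicates. They are given as log2 fold changes.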
For the target CWC15 (UniProt Q9P013), the log2 fold change was inactive: -0.021.

In the case of CT45A5 (UniProt P0DMU8), the log2 fold change was inactive: -0.058.

Turning to CT45A10 (UniProt P0DMU9), the log2 fold change was inactive: -0.082.

For DCP1A (UniProt Q9NPI6), the log2 fold change was inactive: -0.133.

Consider CSRP3 (UniProt P50461), for which the log2 fold change was inactive: -0.028.

As for DCP2 (UniProt Q8IU60), the log2 fold change was inactive: 0.048.

Regarding CYP46A1 (UniProt Q9Y6A2), the log2 fold change was inactive: -0.028.

For CXorf38 (UniProt Q8TB03), the log2 fold change was inactive: -0.034.

Consider CT55 (UniProt Q8WUE5), for which the log2 fold change was inactive: 0.037.

For CTH (UniProt P32929), the log2 fold change is inactive: 0.025.

For CUL1 (UniProt Q13616), the log2 fold change is inactive: -0.021.

As to CTDNEP1 (UniProt O95476), the log2 fold change was inactive: 0.

As to CUTC (UniProt Q9NTM9), the log2 fold change was inactive: 0.009.

Turning to CSRP1 (UniProt P21291), the log2 fold change was inactive: -0.016.

Regarding CUL2 isoform 2 (UniProt Q13617), the log2 fold change was inactive: 0.01.

As to DCTN2 isoform 2 (UniProt Q13561), the log2 fold change is inactive: 0.06.

On to DCAF1 (UniProt Q9Y4B6), for which the log2 fold change was inactive: 0.008.

In the case of DAXX (UniProt Q9UER7), the log2 fold change was inactive: -0.099.

For the target CWC25 (UniProt Q9NXE8), the log2 fold change is inactive: -0.096.

For CXXC1 isoform 2 (UniProt Q9P0U4), the log2 fold change is inactive: -0.095.

On to CYP2S1 isoform 2 (UniProt Q96SQ9), for which the log2 fold change is inactive: -0.183.

Regarding CYC1 (UniProt P08574), the log2 fold change was inactive: -0.005.

For DCTN4 (UniProt Q9UJW0), the log2 fold change was inactive: -0.109.

For CSRP2 (UniProt Q16527), the log2 fold change is inactive: -0.027.

With CUL4A (UniProt Q13619), the log2 fold change is inactive: 0.034.

On to DCTN5 (UniProt Q9BTE1), for which the log2 fold change is inactive: -0.074.

Turning to CTTN (UniProt Q14247), the log2 fold change is inactive: -0.054.

Turning to CYB561A3 isoform 2 (UniProt Q8NBI2), the log2 fold change was inactive: -0.004.

With CSTF2T (UniProt Q9H0L4), the log2 fold change was inactive: -0.014.

Consider DCAF15 (UniProt Q66K64), for which the log2 fold change is inactive: -0.191.

For the target DCUN1D4 isoform 3 (UniProt Q92564), the log2 fold change was inactive: 0.085.

As for DAD1 (UniProt P61803), the log2 fold change was inactive: -0.111.

CYHR1 (UniProt E9PJD7): the log2 fold change was inactive: 0.006.

Turning to CUSTOS (UniProt Q96C57), the log2 fold change is inactive: -0.012.

With DCAF4L2 (UniProt Q8NA75), the log2 fold change is inactive: -0.067.

Regarding CYSTM1 (UniProt Q9H1C7), the log2 fold change is inactive: 0.051.

With CTNNA1 isoform 2 (UniProt P35221), the log2 fold change is inactive: 0.03.

As for CTCF (UniProt P49711), the log2 fold change is inactive: -0.076.

In the case of DAGLB (UniProt Q8NCG7), the log2 fold change is inactive: -0.004.

The values are drawn from the supplement of paper PMC10849652.
